Measurements published in the supplement of paper PMC8728848.
This is one part of the list.

Tests used:
Test in all cases: glycan array binding signal (z-score within array); higher = stronger binding
Conditions in all cases: glycan notation: IUPAC condensed, linker removed
Man(b1-4)GlcNAc = target: Man(b1-4)GlcNAc
Procedure, shortened: (§1)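 From the Consortium for Functional Glycomics database, 3228 arrays were curated, keeping only those whose protein sequence was available. Binding is given as a within-array Z-score averaged across arrays sharing a protein sequence and across linkers. Negative Z-scores can be read as non-binding.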

Neu5Ac(a2-3)Gal = target: Neu5Ac(a2-3)Gal
Procedure, shortened: as §1

[1] = target: Neu5Ac(a2-3)Gal(b1-3)GalNAc
Procedure, shortened: as §1

[2] = target: Neu5Ac(a2-3)Gal(b1-3)GalNAc(b1-3)Gal(a1-4)Gal(b1-4)Glc
Procedure, shortened: as §1

[3] = target: Neu5Ac(a2-3)Gal(b1-3)GalNAc(b1-4)[Neu5Ac(a2-3)]Gal(b1-4)Glc
Procedure, shortened: as §1

[4] = target: Neu5Ac(a2-3)Gal(b1-3)GalNAc6S
Procedure, shortened: as §1

[5] = target: Neu5Ac(a2-3)Gal(b1-3)GlcNAc
Procedure, shortened: as §1

[6] = target: Neu5Ac(a2-3)Gal(b1-3)GlcNAc(b1-3)Gal(b1-3)GlcNAc
Procedure, shortened: as §1

[7] = target: Neu5Ac(a2-3)Gal(b1-3)GlcNAc(b1-3)Gal(b1-4)GlcNAc
Procedure, shortened: as §1

[8] = target: Neu5Ac(a2-3)Gal(b1-3)GlcNAc6S
Procedure, shortened: as §1

[9] = target: Neu5Ac(a2-3)Gal(b1-3)[Fuc(a1-4)]GlcNAc
Procedure, shortened: as §1

[10] = target: Neu5Ac(a2-3)Gal(b1-3)[Fuc(a1-4)]GlcNAc(b1-3)Gal(b1-4)[Fuc(a1-3)]GlcNAc
Procedure, shortened: as §1

[11] = target: Neu5Ac(a2-3)Gal(b1-3)[Neu5Ac(a2-3)Gal(b1-4)]GlcNAc
Procedure, shortened: as §1

[12] = target: Neu5Ac(a2-3)Gal(b1-3)[Neu5Ac(a2-6)]GalNAc
Procedure, shortened: as §1

Neu5Ac(a2-3)Gal(b1-4)Glc = target: Neu5Ac(a2-3)Gal(b1-4)Glc
Procedure, shortened: as §1

[13] = target: Neu5Ac(a2-3)Gal(b1-4)GlcNAc
Procedure, shortened: as §1

[14] = target: Neu5Ac(a2-3)Gal(b1-4)GlcNAc(b1-3)Gal(b1-3)GlcNAc
Procedure, shortened: as §1

[15] = target: Neu5Ac(a2-3)Gal(b1-4)GlcNAc(b1-3)Gal(b1-4)GlcNAc
Procedure, shortened: as §1

[16] = target: Neu5Ac(a2-3)Gal(b1-4)GlcNAc(b1-3)Gal(b1-4)GlcNAc(b1-3)Gal(b1-4)GlcNAc
Procedure, shortened: as §1

[17] = target: Neu5Ac(a2-3)Gal(b1-4)GlcNAc(b1-3)Gal(b1-4)[Fuc(a1-3)]GlcNAc
Procedure, shortened: as §1

[18] = target: Neu5Ac(a2-3)Gal(b1-4)GlcNAc(b1-6)[Gal(b1-3)]GalNAc
Procedure, shortened: as §1

[19] = target: Neu5Ac(a2-3)Gal(b1-4)GlcNAc6S
Procedure, shortened: as §1

[20] = target: Neu5Ac(a2-3)Gal(b1-4)[Fuc(a1-3)]GlcNAc
Procedure, shortened: as §1

[21] = target: Neu5Ac(a2-3)Gal(b1-4)[Fuc(a1-3)]GlcNAc(b1-3)Gal
Procedure, shortened: as §1

[22] = target: Neu5Ac(a2-3)Gal(b1-4)[Fuc(a1-3)]GlcNAc(b1-3)Gal(b1-4)GlcNAc
Procedure, shortened: as §1

[23] = target: Neu5Ac(a2-3)Gal(b1-4)[Fuc(a1-3)]GlcNAc(b1-3)Gal(b1-4)[Fuc(a1-3)]GlcNAc(b1-3)Gal(b1-4)[Fuc(a1-3)]GlcNAc
Procedure, shortened: as §1

[24] = target: Neu5Ac(a2-3)Gal(b1-4)[Fuc(a1-3)]GlcNAc6S
Procedure, shortened: as §1

[25] = target: Neu5Ac(a2-3)Gal6S(b1-4)GlcNAc
Procedure, shortened: as §1

[26] = target: Neu5Ac(a2-3)Gal6S(b1-4)[Fuc(a1-3)]GlcNAc
Procedure, shortened: as §1

Neu5Ac(a2-3)GalNAc = target: Neu5Ac(a2-3)GalNAc
Procedure, shortened: as §1

[27] = target: Neu5Ac(a2-3)GalNAc(b1-4)GlcNAc
Procedure, shortened: as §1

[28] = target: Neu5Ac(a2-3)[GalNAc(b1-4)]Gal(b1-4)Glc
Procedure, shortened: as §1

[29] = target: Neu5Ac(a2-3)[GalNAc(b1-4)]Gal(b1-4)GlcNAc
Procedure, shortened: as §1

[30] = target: Neu5Ac(a2-3)[Neu5Ac(a2-6)]GalNAc
Procedure, shortened: as §1

[31] = target: Neu5Ac(a2-6)Gal(b1-4)GlcNAc
Procedure, shortened: as §1

[32] = target: Neu5Ac(a2-6)Gal(b1-4)GlcNAc(b1-2)Man(a1-3)[Neu5Ac(a2-6)Gal(b1-4)GlcNAc(b1-2)Man(a1-6)]Man(b1-4)GlcNAc(b1-4)GlcNAc
Procedure, shortened: as §1

[33] = target: Neu5Ac(a2-6)Gal(b1-4)GlcNAc(b1-3)Gal(b1-4)GlcNAc
Procedure, shortened: as §1

[34] = target: Neu5Ac(a2-6)Gal(b1-4)GlcNAc(b1-3)Gal(b1-4)[Fuc(a1-3)]GlcNAc(b1-3)Gal(b1-4)[Fuc(a1-3)]GlcNAc
Procedure, shortened: as §1

[35] = target: Neu5Ac(a2-6)Gal(b1-4)GlcNAc6S
Procedure, shortened: as §1

Neu5Ac(a2-6)GalNAc = target: Neu5Ac(a2-6)GalNAc
Procedure, shortened: as §1

[36] = target: Neu5Ac(a2-6)GalNAc(b1-4)GlcNAc
Procedure, shortened: as §1

Neu5Ac(a2-8)Neu5Ac = target: Neu5Ac(a2-8)Neu5Ac
Procedure, shortened: as §1

[37] = target: Neu5Ac(a2-8)Neu5Ac(a2-3)Gal(b1-4)Glc
Procedure, shortened: as §1

[38] = target: Neu5Ac(a2-8)Neu5Ac(a2-3)[GalNAc(b1-4)]Gal(b1-4)Glc
Procedure, shortened: as §1

[39] = target: Neu5Ac(a2-8)Neu5Ac(a2-8)Neu5Ac
Procedure, shortened: as §1

[40] = target: Neu5Ac(a2-8)Neu5Ac(a2-8)Neu5Ac(a2-3)Gal(b1-4)Glc
Procedure, shortened: as §1

[41] = target: Neu5Ac(a2-8)Neu5Ac(a2-8)Neu5Ac(a2-3)[GalNAc(b1-4)]Gal(b1-4)Glc
Procedure, shortened: as §1

[42] = target: Neu5Ac(a2-8)Neu5Ac(a2-8)Neu5Ac(a2-8)Neu5Ac(a2-3)[GalNAc(b1-4)]Gal(b1-4)Glc
Procedure, shortened: as §1

[43] = target: Neu5Ac9Ac(a2-6)Gal(b1-4)GlcNAc
Procedure, shortened: as §1

[44] = target: Neu5Gc(a2-3)Gal(b1-3)GlcNAc
Procedure, shortened: as §1

[45] = target: Neu5Gc(a2-3)Gal(b1-3)[Fuc(a1-4)]GlcNAc
Procedure, shortened: as §1

Neu5Gc(a2-3)Gal(b1-4)Glc = target: Neu5Gc(a2-3)Gal(b1-4)Glc
Procedure, shortened: as §1

[46] = target: Neu5Gc(a2-3)Gal(b1-4)GlcNAc
Procedure, shortened: as §1

[47] = target: Neu5Gc(a2-3)Gal(b1-4)[Fuc(a1-4)]GlcNAc
Procedure, shortened: as §1

[48] = target: Neu5Gc(a2-6)Gal(b1-4)GlcNAc
Procedure, shortened: as §1

Neu5Gc(a2-6)GalNAc = target: Neu5Gc(a2-6)GalNAc
Procedure, shortened: as §1

B1: Tim-4 (Mus musculus), Q6U7R4 (protein)
chain: MSKGLLLLWLVTELWWLYLTPAASEDTIIGFLGQPVTLPCHYLSWSQSRNSMCWGKGSCPNSKCNAELLRTDGTRIISRKSTKYTLLGKVQFGEVSLTISNTNRGDSGVYCCRIEVPGWFNDVKKNVRLELRRATTTKKPTTTTRPTTTPYVTTTTPELLPTTVMTTSVLPTTTPPQTLATTAFSTAVTTCPSTTPGSFSQETTKGSAFTTESETLPASNHSQRSMMTISTDIAVLRPTGSNPGILPSTSQLTTQKTTLTTSESLQKTTKSHQINSRQTILIIACCVGFVLMVLLFLAFLLRGKVTGANCLQRHKRPDNTEDSDSVLNDMSHGRDDEDGIFTL
- glycan array binding signal (z-score) (Man(b1-4)GlcNAc): 0.33
- glycan array binding signal (z-score) (Neu5Ac(a2-3)Gal): -0.733
- glycan array binding signal (z-score) [1]: -0.218
- glycan array binding signal (z-score) [2]: -0.701
- glycan array binding signal (z-score) [3]: 0.429
- glycan array binding signal (z-score) [4]: -0.314
- glycan array binding signal (z-score) [5]: -0.448
- glycan array binding signal (z-score) [6]: -0.753
- glycan array binding signal (z-score) [7]: -0.953
- glycan array binding signal (z-score) [8]: 0.27
- glycan array binding signal (z-score) [9]: -0.562
- glycan array binding signal (z-score) [10]: -0.184
- glycan array binding signal (z-score) [11]: -0.642
- glycan array binding signal (z-score) [12]: -0.613
- glycan array binding signal (z-score) (Neu5Ac(a2-3)Gal(b1-4)Glc): -0.082
- glycan array binding signal (z-score) [13]: -0.376
- glycan array binding signal (z-score) [14]: -0.882
- glycan array binding signal (z-score) [15]: -0.482
- glycan array binding signal (z-score) [16]: -0.695
- glycan array binding signal (z-score) [17]: -0.452
- glycan array binding signal (z-score) [18]: -0.248
- glycan array binding signal (z-score) [19]: -0.51
- glycan array binding signal (z-score) [20]: -0.657
- glycan array binding signal (z-score) [21]: -0.474
- glycan array binding signal (z-score) [22]: 0.265
- glycan array binding signal (z-score) [23]: -0.207
- glycan array binding signal (z-score) [24]: -0.889
- glycan array binding signal (z-score) [25]: -0.06
- glycan array binding signal (z-score) [26]: -0.754
- glycan array binding signal (z-score) (Neu5Ac(a2-3)GalNAc): -0.538
- glycan array binding signal (z-score) [27]: -0.624
- glycan array binding signal (z-score) [28]: -0.529
- glycan array binding signal (z-score) [29]: -0.509
- glycan array binding signal (z-score) [30]: -0.437
- glycan array binding signal (z-score) [31]: -0.403
- glycan array binding signal (z-score) [32]: -0.414
- glycan array binding signal (z-score) [33]: -0.645
- glycan array binding signal (z-score) [34]: -0.155
- glycan array binding signal (z-score) [35]: 0.128
- glycan array binding signal (z-score) (Neu5Ac(a2-6)GalNAc): -0.265
- glycan array binding signal (z-score) [36]: -0.146
- glycan array binding signal (z-score) (Neu5Ac(a2-8)Neu5Ac): -0.484
- glycan array binding signal (z-score) [37]: -0.726
- glycan array binding signal (z-score) [38]: -0.76
- glycan array binding signal (z-score) [39]: -0.829
- glycan array binding signal (z-score) [40]: -0.545
- glycan array binding signal (z-score) [41]: 1.32
- glycan array binding signal (z-score) [42]: -0.463
- glycan array binding signal (z-score) [43]: -0.34
- glycan array binding signal (z-score) [44]: 0.286
- glycan array binding signal (z-score) [45]: -0.22
- glycan array binding signal (z-score) (Neu5Gc(a2-3)Gal(b1-4)Glc): 0.064
- glycan array binding signal (z-score) [46]: 0.053
- glycan array binding signal (z-score) [47]: 0.082
- glycan array binding signal (z-score) [48]: -0.113
- glycan array binding signal (z-score) (Neu5Gc(a2-6)GalNAc): 0.227
